In US20230358677A1, “Reversible Excited-State Photoacids and Photobases as Dynamic Fluorescence Sensors of Protonic Species” (California Institute of Technology, priority 2022, published 2023):

Assay: Time-resolved photoluminescence spectroscopy (excited-state lifetime)
Assay type: physicochemical
Conditions: for excited-state lifetime τo: near-neutral pH (NS—NH2 pH 7.32, APTS pH 6.3, EDANS pH 6.2), aqueous

Row | Compound | excited-state lifetime τo | excited-state lifetime (alkaline solution, pH 12.18)
1 | Nc1cc(S(=O)(=O)[O-])c2ccc3c(S(=O)(=O)[O-])cc(S(=O)(=O)[O-])c4ccc1c2c43.[Na+].[Na+].[Na+] [APTS, 8-aminopyrene-1,3,6-trisulfonic acid trisodium salt] | 3.88 ns | –
2 | NCCNc1cccc2c(S(=O)(=O)[O-])cccc12.[Na+] [EDANS, 5-((2-aminoethyl)amino)naphthalene-1-sulfonic acid sodium salt] | 8.82 ns | –
3 | Nc1cccc2c(S(=O)(=O)[O-])cccc12.[Na+] [NS—NH2, 5-aminonaphthalene-1-sulfonic acid sodium salt] | – | 2.57 ns
